In test [1] the target is AMPK. In words: co-immunoprecipitation, HEK293T cells expressing GFP-IRGM.
For test [2], the target named is ΔLRR NOD2. As to the kind of experiment: co-IP of Flag-NOD2 variants with GFP-IRGM.
In another test the target is ΔCARD NOD2. In words: Flag pull-down, affinity purified Flag-NOD2 variants and purified GST-IRGM.
Test [3] concerns the target ΔLRR NOD2. The test is described as above.
In test [4] the target is AMPK. As to the kind of experiment: co-IP of GFP-TRIM20 complexes, HEK293T cells.

The results in this text go back to patent US20180236024A1.

Results are given in words; binding and its absence hold for the method and conditions named. For some assays here: In cells and extracts the contact can be indirect. For some assays here: A result given as binding can be weak or reduced; the word gives no strength. For some assays here: Tags and fused reporters may be left off the sequences shown.

B1: IRGM (human IRGM, isoform d) (protein, UniProt A1A4Y4-4 1-202, looked up)
chain: MEAMNVEKASADGNLPEVISNIKETLKIVSRTPVNITMAGDSGNGMSTFISALRNTGHEGKASPPTELVKATQRCASYFSSHFSNVVLWDLPGTGSATTTLENYLMEMQFNRYDFIMVASAQFSMNHVMLAKTAEDMGKKFYIVWTKLDMDLSTGALPEVQLLQIRENVLENLQKERLACHEKYLKSTPENSTRPRNINLCS
With B1, the binding entry with AMPK [1] is listed as “no binding”; with ΔLRR NOD2 [2], “binds”.

B2: purified recombinant GST-IRGM (GST-IRGMd), prepared from insect cells (protein, human, UniProt A1A4Y4-4 1-202, looked up, not shown: a dimerising Fc or GST)
chain: MEAMNVEKASADGNLPEVISNIKETLKIVSRTPVNITMAGDSGNGMSTFISALRNTGHEGKASPPTELVKATQRCASYFSSHFSNVVLWDLPGTGSATTTLENYLMEMQFNRYDFIMVASAQFSMNHVMLAKTAEDMGKKFYIVWTKLDMDLSTGALPEVQLLQIRENVLENLQKERLACHEKYLKSTPENSTRPRNINLCS
As to B2, the values for the binding result with ΔCARD NOD2 and with ΔLRR NOD2 [3] were “no binding” and “binds”, respectively.

B3: GFP-TRIM20 (full-length human TRIM20) (protein, not shown: large carriers)
chain: MAKTPSDHLLSTLEELVPYDFEKFKFKLQNTSVQKEHSRIPRSQIQRARPVKMATLLVTYYGEEYAVQLTLQVLRAINQRLLAEELHRAAIQEYSTQENGTDDSAASSSLGENKPRSLKTPDHPEGNEGNGPRPYGGGAASLRCSQPEAGRGLSRKPLSKRREKASEGLDAQGKPRTRSPALPGGRSPGPCRALEGGQAEVRLRRNASSAGRLQGLAGGAPGQKECRPFEVYLPSGKMRPRSLEVTISTGEKAPANPEILLTLEEKTAANLDSATEPRARPTPDGGASADLKEGPGNPEHSVTGRPPDTAASPRCHAQEGDPVDGTCVRDSCSFPEAVSGHPQASGSRSPGCPRCQDSHERKSPGSLSPQPLPQCKRHLKQVQLLFCEDHDEPICLICSLSQEHQGHRVRPIEEVALEHKKKIQKQLEHLKKLRKSGEEQRSYGEEKAVSFLKQTEALKQRVQRKLEQVYYFLEQQEHFFVASLEDVGQMVGQIRKAYDTRVSQDIALLDALIGELEAKECQSEWELLQDIGDILHRAKTVPVPEKWTTPQEIKQKIQLLHQKSEFVEKSTKYFSETLRSEMEMFNVPELIGAQAHAVNVILDAETAYPNLIFSDDLKSVRLGNKWERLPDGPQRFDSCIIVLGSPSFLSGRRYWEVEVGDKTAWILGACKTSISRKGNMTLSPENGYWVVIMMKENEYQASSVPPTRLLIKEPPKRVGIFVDYRVGSISFYNVTARSHIYTFASCSFSGPLQPIFSPGTRDGGKNTAPLTICPVGGQGPD
Regarding B3, the binding entry with AMPK [4] is recorded as “binds”.
